The assay deals with Twist1 (human (endogenous in HEK293T)) (UniProt Q15672). As to the kind of experiment: co-IP; HEK293T cells transfected with Flag-USP4 plasmid for 36 h, treated with 20 uM MG132 for 6 h before co-IP; which protein was precipitated is not told.

Chains of the proteins cited; added tags and fusions are not shown.
UniProt Q15672: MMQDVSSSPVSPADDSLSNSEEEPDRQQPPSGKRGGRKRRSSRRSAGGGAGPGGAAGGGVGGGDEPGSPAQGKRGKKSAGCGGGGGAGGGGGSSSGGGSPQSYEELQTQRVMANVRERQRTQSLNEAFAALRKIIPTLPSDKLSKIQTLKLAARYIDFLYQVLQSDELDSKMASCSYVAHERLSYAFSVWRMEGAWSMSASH

These are yes or no findings as the source states them, for the method shown. In cells and extracts the contact can be indirect. Some binding calls cover weakened binding; strength is not graded here. Sequences can lack the tags named with a protein.

B1: Flag-USP4 (enzyme, UniProt Q13107 1-963)
chain: MAEGGGCRERPDAETQKSELGPLMRTTLQRGAQWYLIDSRWFKQWKKYVGFDSWDMYNVGEHNLFPGPIDNSGLFSDPESQTLKEHLIDELDYVLVPTEAWNKLLNWYGCVEGQQPIVRKVVEHGLFVKHCKVEVYLLELKLCENSDPTNVLSCHFSKADTIATIEKEMRKLFNIPAERETRLWNKYMSNTYEQLSKLDNTVQDAGLYQGQVLVIEPQNEDGTWPRQTLQSKSSTAPSRNFTTSPKSSASPYSSVSASLIANGDSTSTCGMHSSGVSRGGSGFSASYNCQEPPSSHIQPGLCGLGNLGNTCFMNSALQCLSNTAPLTDYFLKDEYEAEINRDNPLGMKGEIAEAYAELIKQMWSGRDAHVAPRMFKTQVGRFAPQFSGYQQQDSQELLAFLLDGLHEDLNRVKKKPYLELKDANGRPDAVVAKEAWENHRLRNDSVIVDTFHGLFKSTLVCPECAKVSVTFDPFCYLTLPLPLKKDRVMEVFLVPADPHCRPTQYRVTVPLMGAVSDLCEALSRLSGIAAENMVVADVYNHRFHKIFQMDEGLNHIMPRDDIFVYEVCSTSVDGSECVTLPVYFRERKSRPSSTSSASALYGQPLLLSVPKHKLTLESLYQAVCDRISRYVKQPLPDEFGSSPLEPGACNGSRNSCEGEDEEEMEHQEEGKEQLSETEGSGEDEPGNDPSETTQKKIKGQPCPKRLFTFSLVNSYGTADINSLAADGKLLKLNSRSTLAMDWDSETRRLYYDEQESEAYEKHVSMLQPQKKKKTTVALRDCIELFTTMETLGEHDPWYCPNCKKHQQATKKFDLWSLPKILVVHLKRFSYNRYWRDKLDTVVEFPIRGLNMSEFVCNLSARPYVYDLIAVSNHYGAMGVGHYTAYAKNKLNGKWYYFDDSNVSLASEDQIVTKAAYVLFYQRRDDEFYKTPSLSSSGSSDGGTRPSSSQQGFGDDEACSMDTN
B1: the binding entry was “binds”.

The record behind these values is paper PMC7352958.
